Results on 38 targets are retold here after the supplement of paper PMC10849652.

Sequences of proteins named here, by UniProt entry; tags and fusion partners are left off. A change or cut given only in a name is not applied to a line headed by its entry.
UniProt Q92504: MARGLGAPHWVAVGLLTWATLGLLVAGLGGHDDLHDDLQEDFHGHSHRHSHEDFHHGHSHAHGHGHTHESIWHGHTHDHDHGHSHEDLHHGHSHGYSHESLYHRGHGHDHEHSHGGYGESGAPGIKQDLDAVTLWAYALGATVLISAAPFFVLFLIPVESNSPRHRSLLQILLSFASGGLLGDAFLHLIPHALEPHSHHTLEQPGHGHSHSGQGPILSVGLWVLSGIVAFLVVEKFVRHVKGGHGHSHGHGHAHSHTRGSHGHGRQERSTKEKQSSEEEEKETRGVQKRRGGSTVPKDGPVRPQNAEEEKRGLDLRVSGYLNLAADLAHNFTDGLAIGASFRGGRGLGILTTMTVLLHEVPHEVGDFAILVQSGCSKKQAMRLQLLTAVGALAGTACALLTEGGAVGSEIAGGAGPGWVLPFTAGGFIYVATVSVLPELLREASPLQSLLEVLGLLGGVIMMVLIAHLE
UniProt Q8NBW4: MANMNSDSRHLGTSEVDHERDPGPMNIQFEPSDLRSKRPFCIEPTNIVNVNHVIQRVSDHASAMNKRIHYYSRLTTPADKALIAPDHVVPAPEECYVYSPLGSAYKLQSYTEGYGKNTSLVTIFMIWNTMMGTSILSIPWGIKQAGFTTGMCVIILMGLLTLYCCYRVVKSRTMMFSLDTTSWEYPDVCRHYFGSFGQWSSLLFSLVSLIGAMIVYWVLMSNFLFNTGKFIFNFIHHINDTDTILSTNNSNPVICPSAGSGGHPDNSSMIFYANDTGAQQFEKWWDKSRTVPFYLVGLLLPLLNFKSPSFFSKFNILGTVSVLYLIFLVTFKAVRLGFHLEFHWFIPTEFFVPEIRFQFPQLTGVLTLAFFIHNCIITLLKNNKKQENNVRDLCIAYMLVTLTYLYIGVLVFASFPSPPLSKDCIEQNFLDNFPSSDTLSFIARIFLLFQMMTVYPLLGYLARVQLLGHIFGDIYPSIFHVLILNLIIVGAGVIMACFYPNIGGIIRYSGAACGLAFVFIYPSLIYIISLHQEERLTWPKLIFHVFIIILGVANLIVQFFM
UniProt Q6NUK1: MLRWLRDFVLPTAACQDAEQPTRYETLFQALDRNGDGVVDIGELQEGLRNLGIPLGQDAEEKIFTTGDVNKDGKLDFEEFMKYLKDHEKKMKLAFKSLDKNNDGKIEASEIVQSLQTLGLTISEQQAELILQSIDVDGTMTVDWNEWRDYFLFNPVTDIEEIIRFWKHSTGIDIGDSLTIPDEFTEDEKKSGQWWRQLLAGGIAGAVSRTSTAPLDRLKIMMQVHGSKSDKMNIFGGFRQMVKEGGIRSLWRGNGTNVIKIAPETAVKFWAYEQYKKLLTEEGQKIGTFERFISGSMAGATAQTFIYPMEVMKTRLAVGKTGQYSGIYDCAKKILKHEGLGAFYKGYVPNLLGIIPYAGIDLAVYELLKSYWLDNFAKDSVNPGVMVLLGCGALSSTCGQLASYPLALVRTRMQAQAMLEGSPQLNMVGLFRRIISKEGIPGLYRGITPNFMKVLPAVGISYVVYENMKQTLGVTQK
UniProt P05141: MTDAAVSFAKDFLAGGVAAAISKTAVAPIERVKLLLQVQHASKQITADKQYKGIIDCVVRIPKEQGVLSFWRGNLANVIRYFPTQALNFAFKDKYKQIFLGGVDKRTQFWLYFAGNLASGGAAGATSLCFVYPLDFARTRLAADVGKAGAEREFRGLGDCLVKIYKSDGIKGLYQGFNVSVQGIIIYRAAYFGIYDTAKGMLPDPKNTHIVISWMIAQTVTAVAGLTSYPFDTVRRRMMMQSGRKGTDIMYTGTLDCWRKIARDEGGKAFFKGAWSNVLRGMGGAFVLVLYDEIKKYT
UniProt P11169: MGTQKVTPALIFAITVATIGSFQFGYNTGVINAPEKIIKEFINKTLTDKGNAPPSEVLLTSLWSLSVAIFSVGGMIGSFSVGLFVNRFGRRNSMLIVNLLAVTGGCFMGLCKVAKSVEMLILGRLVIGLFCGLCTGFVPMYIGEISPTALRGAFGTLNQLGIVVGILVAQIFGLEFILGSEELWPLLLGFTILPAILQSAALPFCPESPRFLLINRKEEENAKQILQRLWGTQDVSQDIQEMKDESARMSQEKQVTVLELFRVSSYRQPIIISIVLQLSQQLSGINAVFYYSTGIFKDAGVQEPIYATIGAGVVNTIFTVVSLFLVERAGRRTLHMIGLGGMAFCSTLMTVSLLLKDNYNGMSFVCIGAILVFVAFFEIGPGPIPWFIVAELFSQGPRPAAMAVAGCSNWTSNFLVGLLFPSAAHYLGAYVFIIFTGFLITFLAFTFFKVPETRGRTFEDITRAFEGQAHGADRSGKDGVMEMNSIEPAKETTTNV
UniProt Q6ZP29: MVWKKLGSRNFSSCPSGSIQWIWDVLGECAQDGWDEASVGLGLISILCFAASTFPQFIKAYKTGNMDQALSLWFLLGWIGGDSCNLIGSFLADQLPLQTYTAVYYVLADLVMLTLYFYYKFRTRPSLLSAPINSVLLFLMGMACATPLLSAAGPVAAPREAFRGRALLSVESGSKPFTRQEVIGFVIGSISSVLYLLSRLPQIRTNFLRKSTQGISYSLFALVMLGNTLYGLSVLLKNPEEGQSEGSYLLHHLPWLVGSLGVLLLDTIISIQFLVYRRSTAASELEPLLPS
UniProt Q99717: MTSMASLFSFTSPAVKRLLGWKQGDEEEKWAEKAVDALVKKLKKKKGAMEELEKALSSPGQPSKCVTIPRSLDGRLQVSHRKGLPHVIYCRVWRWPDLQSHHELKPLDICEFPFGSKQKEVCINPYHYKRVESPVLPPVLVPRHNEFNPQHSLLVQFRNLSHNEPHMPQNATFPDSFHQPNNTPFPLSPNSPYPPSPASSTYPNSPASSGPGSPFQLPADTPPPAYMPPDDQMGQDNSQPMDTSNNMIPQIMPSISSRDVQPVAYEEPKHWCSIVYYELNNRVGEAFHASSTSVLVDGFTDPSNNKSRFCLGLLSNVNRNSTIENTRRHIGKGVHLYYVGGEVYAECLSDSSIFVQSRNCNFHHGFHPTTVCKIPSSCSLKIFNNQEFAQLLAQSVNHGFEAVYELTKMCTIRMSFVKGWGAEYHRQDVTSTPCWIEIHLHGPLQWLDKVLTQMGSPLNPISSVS
UniProt O00400: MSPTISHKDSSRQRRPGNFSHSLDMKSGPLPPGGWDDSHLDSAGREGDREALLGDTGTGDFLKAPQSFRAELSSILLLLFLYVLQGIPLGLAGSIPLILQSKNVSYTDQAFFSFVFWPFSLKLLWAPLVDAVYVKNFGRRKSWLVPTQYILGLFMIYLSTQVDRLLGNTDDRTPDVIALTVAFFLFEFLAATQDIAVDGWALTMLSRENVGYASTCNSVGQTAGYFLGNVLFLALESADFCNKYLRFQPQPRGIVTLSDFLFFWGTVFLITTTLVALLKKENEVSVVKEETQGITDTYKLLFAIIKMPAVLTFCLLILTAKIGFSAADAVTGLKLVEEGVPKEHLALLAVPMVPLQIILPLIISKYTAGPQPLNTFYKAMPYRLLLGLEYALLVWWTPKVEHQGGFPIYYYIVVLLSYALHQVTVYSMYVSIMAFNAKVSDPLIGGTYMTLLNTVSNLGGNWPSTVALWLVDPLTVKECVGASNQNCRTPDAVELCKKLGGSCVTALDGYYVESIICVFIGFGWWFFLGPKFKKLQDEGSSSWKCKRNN
UniProt Q9BSK2: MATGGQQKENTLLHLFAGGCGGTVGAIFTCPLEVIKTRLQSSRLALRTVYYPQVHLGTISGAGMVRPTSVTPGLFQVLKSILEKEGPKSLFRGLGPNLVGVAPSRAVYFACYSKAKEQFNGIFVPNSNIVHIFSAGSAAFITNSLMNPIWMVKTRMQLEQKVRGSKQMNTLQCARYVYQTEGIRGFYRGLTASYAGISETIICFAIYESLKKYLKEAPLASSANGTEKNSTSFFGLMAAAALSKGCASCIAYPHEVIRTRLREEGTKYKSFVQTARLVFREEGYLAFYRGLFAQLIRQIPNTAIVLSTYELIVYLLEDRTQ
UniProt Q6KCM7: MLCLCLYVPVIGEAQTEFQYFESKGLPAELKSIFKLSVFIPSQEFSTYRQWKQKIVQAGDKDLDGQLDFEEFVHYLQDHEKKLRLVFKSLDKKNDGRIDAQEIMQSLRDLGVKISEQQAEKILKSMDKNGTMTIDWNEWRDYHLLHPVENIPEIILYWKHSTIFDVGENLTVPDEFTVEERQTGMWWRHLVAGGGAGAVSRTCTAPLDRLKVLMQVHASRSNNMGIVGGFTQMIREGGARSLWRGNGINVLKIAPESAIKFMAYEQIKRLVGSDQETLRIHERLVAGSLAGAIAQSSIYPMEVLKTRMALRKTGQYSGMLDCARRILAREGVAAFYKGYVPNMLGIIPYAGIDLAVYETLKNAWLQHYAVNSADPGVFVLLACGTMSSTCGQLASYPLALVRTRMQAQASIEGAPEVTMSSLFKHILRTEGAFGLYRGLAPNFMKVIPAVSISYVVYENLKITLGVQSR
UniProt Q9HBR0: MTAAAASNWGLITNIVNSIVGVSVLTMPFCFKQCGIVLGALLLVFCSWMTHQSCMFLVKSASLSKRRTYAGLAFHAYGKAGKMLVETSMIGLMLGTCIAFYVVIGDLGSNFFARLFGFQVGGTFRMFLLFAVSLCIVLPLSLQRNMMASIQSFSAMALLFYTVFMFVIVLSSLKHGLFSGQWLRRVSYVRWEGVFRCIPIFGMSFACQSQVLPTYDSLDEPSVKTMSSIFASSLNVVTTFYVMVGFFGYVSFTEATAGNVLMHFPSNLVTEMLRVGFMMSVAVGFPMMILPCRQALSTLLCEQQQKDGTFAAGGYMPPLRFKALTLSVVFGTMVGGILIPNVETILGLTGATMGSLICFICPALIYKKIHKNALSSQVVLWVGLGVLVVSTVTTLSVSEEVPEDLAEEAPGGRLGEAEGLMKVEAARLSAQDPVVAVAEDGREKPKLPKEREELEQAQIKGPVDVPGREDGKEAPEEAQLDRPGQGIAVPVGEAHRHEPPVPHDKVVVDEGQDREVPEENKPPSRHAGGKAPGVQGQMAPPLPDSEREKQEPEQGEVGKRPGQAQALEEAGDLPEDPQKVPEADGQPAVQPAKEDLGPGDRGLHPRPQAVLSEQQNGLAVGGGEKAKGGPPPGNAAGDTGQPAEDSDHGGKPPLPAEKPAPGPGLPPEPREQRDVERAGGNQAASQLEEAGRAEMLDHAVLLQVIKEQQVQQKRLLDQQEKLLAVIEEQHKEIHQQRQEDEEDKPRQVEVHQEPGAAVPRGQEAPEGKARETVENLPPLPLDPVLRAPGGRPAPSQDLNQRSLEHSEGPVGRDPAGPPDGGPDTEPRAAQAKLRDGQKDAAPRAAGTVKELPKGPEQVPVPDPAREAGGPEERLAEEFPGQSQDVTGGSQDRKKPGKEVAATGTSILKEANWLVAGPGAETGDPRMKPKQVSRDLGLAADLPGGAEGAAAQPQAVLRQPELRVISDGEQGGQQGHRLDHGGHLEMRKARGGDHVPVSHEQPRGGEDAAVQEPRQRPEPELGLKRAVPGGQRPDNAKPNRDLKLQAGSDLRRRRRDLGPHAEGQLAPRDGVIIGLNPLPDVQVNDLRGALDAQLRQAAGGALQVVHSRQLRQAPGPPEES
UniProt Q8TBP6: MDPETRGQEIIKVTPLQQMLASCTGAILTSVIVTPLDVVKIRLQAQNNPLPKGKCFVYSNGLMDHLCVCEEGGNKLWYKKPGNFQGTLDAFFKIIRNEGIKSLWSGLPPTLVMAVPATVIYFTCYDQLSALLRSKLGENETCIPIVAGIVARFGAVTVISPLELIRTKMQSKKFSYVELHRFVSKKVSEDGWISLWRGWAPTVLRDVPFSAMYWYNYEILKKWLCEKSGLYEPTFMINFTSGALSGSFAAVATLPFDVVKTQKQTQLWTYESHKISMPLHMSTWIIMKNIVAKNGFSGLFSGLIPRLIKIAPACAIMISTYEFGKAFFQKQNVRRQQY
UniProt P48029: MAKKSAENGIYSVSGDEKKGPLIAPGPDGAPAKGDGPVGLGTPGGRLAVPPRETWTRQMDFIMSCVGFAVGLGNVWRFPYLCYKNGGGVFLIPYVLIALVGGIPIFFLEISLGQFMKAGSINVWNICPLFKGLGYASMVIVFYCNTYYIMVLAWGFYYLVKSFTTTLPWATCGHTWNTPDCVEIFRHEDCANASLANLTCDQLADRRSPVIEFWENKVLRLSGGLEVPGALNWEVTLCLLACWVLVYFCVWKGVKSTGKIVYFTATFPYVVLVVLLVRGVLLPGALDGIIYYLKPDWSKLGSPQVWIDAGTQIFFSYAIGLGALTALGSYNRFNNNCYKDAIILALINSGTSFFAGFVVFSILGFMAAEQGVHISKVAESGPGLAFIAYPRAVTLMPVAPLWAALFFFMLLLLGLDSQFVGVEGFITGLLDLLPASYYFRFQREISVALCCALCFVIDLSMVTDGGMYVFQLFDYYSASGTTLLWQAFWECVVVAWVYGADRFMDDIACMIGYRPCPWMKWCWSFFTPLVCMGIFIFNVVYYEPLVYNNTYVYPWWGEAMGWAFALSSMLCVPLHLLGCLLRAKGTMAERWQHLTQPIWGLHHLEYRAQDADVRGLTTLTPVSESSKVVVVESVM

Some of the results follow.

Compound in the assay: NC1(c2ccc(-c3nc4ccn5c(=O)[nH]nc5c4cc3-c3ccccc3)cc2)CCC1
Description: log2 fold change, soluble protein after heating vs DMSO (PISA); higher = thermal stabilisation; K562 lysate, 10 uM; active = over 0.2 and 3.5 SD of the protein, either way, in both replicates (recomputed). The method in brief:
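A 30 min treatment with 10 μM compound was applied to crude K562 extract at 1 mg/mL protein in PBS pH 7.4 with 1 mM MgCl2. Heating for 3 min spanned 48°C-58°C, after which aliquots were pooled, adjusted to 0.5% NP-40 at 4°C and spun at 21,000xg for 90 min. TMTpro 16plex LC-MS/MS of the supernatant, with channel sums equalised, gave values recorded as log-two fold change in thermal stability against solvent controls, from duplicates.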
Regarding SLC39A7 (UniProt Q92504), the log2 fold change is inactive: -0.04. Regarding SLC38A9 (UniProt Q8NBW4), the log2 fold change is inactive: 0.005. As for SLU7 (UniProt O95391), the log2 fold change was inactive: 0.016. On to SLC30A6 isoform 2 (UniProt Q6NXT4), for which the log2 fold change is inactive: -0.096. Take SLC25A24 (UniProt Q6NUK1): the log2 fold change was inactive: 0.02.

As for SLC3A2 isoform 3 (UniProt P08195), the log2 fold change is inactive: 0.014. For SLC38A1 (UniProt Q9H2H9), the log2 fold change is inactive: -0.024. The same measure for SLC4A1AP (UniProt Q9BWU0): inactive: 0.009; for SLC25A5 (UniProt P05141): inactive: 0.012. With SLC35F6 (UniProt Q8N357), the log2 fold change was inactive: -0.027. For SLC25A11 (UniProt Q02978), the log2 fold change is inactive: -0.035. As for SLC66A2 (UniProt Q8N2U9), the log2 fold change was inactive: -0.127.

For SLC40A1 (UniProt Q9NP59), the log2 fold change was inactive: -0.185. Take SLC25A39 (UniProt Q9BZJ4): the log2 fold change is inactive: 0.082.

On to SLC39A8 (UniProt Q9C0K1), for which the log2 fold change was inactive: -0.023. With SLC3A2 (UniProt F5GZS6) the figure was inactive: -0.03; with SLC2A3 (UniProt P11169), inactive: 0.008. With SLC66A1 (UniProt Q6ZP29), the log2 fold change was inactive: -0.006. The same measure for SMAD5 (UniProt Q99717): inactive: 0.05; for SLC48A1 (UniProt Q6P1K1): inactive: -0.102; for SLC33A1 (UniProt O00400): inactive: 0.024. As for SLC25A33 (UniProt Q9BSK2), the log2 fold change was inactive: 0.013. For the target SLC25A22 (UniProt Q9H936), the log2 fold change is inactive: 0.026. The same measure for SLC35C1 (UniProt Q96A29): inactive: 0.069; for SLC39A10 (UniProt Q9ULF5): inactive: 0.026; for SLC25A46 (UniProt Q96AG3): inactive: -0.019.

For the target SLC4A7 isoform 7 (UniProt Q9Y6M7), the log2 fold change was inactive: -0.023. As for SLC25A25 isoform 3 (UniProt Q6KCM7), the log2 fold change was inactive: -0.025. With SLC35F2 (UniProt Q8IXU6), the log2 fold change was inactive: -0.005. For the target SLC35B4 (UniProt Q969S0), the log2 fold change was inactive: -0.029.

As to SLC9A8 isoform 2 (UniProt Q9Y2E8), the log2 fold change is inactive: 0.01. As for SLC39A14 (UniProt Q15043), the log2 fold change is inactive: -0.025. On to SMAP (UniProt O00193), for which the log2 fold change was inactive: -0.032. For SLC25A51 (UniProt Q9H1U9), the log2 fold change was inactive: -0.069. Turning to SLC7A5 (UniProt Q01650), the log2 fold change was inactive: -0.003. The same measure for SLC38A10 (UniProt Q9HBR0): inactive: 0.023; for SLC25A40 (UniProt Q8TBP6): inactive: 0.001; for SLC6A8 isoform 2 (UniProt P48029): inactive: -0.077.
